Assay [1] concerns the target T1, M6HH-tagged SPD-5 amino acids 1-60, not phosphorylated (C. elegans) (UniProt P91349).
T1 sequence: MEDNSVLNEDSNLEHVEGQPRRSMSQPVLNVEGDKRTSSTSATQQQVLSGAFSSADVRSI
The experiment in a line: pull-down; MBP pull-down: purified SPD-5 fragments mixed (2.0 μM) with or without PLK1(T194D) in kinase buffer, then 75 nM each with anti-MBP antibody in lysis buffer 2 h at 4°C and protein A beads 1 h; M6HH-tagged fragment is the bait; immunoblot; both purified. (In general: A western blot detects proteins with antibodies after separation by electrophoresis.)

Assay [2] deals with T2, M6HH-tagged SPD-5 amino acids 1-113 (PRGB1), not phosphorylated (C. elegans) (UniProt P91349).
T2 sequence: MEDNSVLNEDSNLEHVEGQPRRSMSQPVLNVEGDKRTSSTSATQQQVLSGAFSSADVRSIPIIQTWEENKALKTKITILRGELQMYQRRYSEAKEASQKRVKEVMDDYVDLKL
Description: SEC-MALS; Superose 6 increase 10/300 or Superdex 200 increase 10/300 in 20 mM tris-HCl pH 7.5, 50 mM NaCl, 5 mM EGTA, 2 mM MgCl2, 1 mM DTT; 120 μl of ~2.0 mg/ml protein loaded; with or without PLK1 phosphorylation; both purified.

In assay [3] the target is M6HH-tagged SPD-5 amino acids 1-113 (PRGB1), phosphorylated by PLK1 (C. elegans) (UniProt P91349). The assay is described as above.
Assay [4] concerns the target M6HH-tagged SPD-5 amino acids 1-200, not phosphorylated (C. elegans) (UniProt P91349). The assay is described as above.
Assay [5] addresses T2, M6HH-tagged SPD-5 amino acids 1-113 (PRGB1), not phosphorylated (C. elegans). Description: pull-down; MBP pull-down: purified SPD-5 fragments mixed (2.0 μM) with or without PLK1(T194D) in kinase buffer, then 75 nM each with anti-MBP antibody in lysis buffer 2 h at 4°C and protein A beads 1 h; M6HH-tagged fragment is the bait; immunoblot; both purified.

No constants are given. Whether binding was seen depends on the method and setting. Where a sequence is shown, tags or fusion partners need not be part of it.

B1: untagged SPD-5 amino acids 101-473, not phosphorylated (domain or fragment, UniProt P91349 101-473)
chain: VKEVMDDYVDLKLGQENVQEKMEQYKLMEEDLLAMQSRIETSEDNFARQMKEFEAQKHAMEERIKELELSATDANNTTVGSFRGTLDDILKKNDPDFTLTSGYEERKINDLEAKLLSEIDKVAELEDHIQQLRQELDDQSARLADSENVRAQLEAATGQGILGAAGNAMVPNSTFMIGNGRESQTRDQLNYIDDLETKLADAKKENDKARQALVEYMNKCSKLEHEIRTMVKNSTFDSSSMLLGGQTSDELKIQIGKVNGELNVLRAENRELRIRCDQLTGGDGNLSISLGQSRLMAGIATNDVDSIGQGNETGGTSMRILPRESQLDDLEESKLPLMDTSSAVRNQQQFASMWEDFESVKDSLQNNHNDTLE
With B1, the binding entry in assay [1] is listed as “no binding (tested: 75 nM)”.

B2: M6HH-tagged SPD-5 amino acids 1-113 (PRGB1), not phosphorylated (domain or fragment, UniProt P91349 1-113)
chain: T2 sequence
B2: in assay [2], the binding result is listed as “no binding (tested: ~2.0 mg/ml loaded)”.

B3: M6HH-tagged SPD-5 amino acids 1-113 (PRGB1), phosphorylated by PLK1 (domain or fragment, UniProt P91349 1-113)
chain: T2 sequence
modifications: phosphorylated in vitro by PLK1(T194D); candidate sites S5 and S11
Turning to B3, in assay [3], the binding result is “no binding (tested: ~2.0 mg/ml loaded)”.

B4: M6HH-tagged SPD-5 amino acids 1-200, not phosphorylated (domain or fragment, UniProt P91349 1-200)
chain: MEDNSVLNEDSNLEHVEGQPRRSMSQPVLNVEGDKRTSSTSATQQQVLSGAFSSADVRSIPIIQTWEENKALKTKITILRGELQMYQRRYSEAKEASQKRVKEVMDDYVDLKLGQENVQEKMEQYKLMEEDLLAMQSRIETSEDNFARQMKEFEAQKHAMEERIKELELSATDANNTTVGSFRGTLDDILKKNDPDFTLT
As to B4, the binding result in assay [4] is “no binding (tested: ~2.0 mg/ml loaded)”.

B5: Halo-tagged SPD-5 amino acids 200-345, not phosphorylated (domain or fragment, UniProt P91349 200-345)
chain: TSGYEERKINDLEAKLLSEIDKVAELEDHIQQLRQELDDQSARLADSENVRAQLEAATGQGILGAAGNAMVPNSTFMIGNGRESQTRDQLNYIDDLETKLADAKKENDKARQALVEYMNKCSKLEHEIRTMVKNSTFDSSSMLLGG
As for B5, in assay [5], the binding result is “no binding (tested: 75 nM)”.

For the origin of these results see article PMC13215203.
